Among all 6,900 compounds or so, fewer than 10 were called active. Calls follow the shape of the dose curve; as a rule, active = well fitted curve in the direction sought with a large enough effect; inconclusive = small, poorly fitted or top-dose-only effect, or another doubt; inactive = no such curve, though single readings can be large or run the other way. The list shows a part of the results.
Each molecule was assayed against Metallo-beta-lactamase type 2 (Klebsiella pneumoniae) (UniProt C7C422) (assay: qHTS to identify inhibitors of the New Delhi Metallo-beta-lactamase (NDM): primary screen against the NCATS Gemini Collection). Conditions: NDM-1 enzyme, meropenem hydrolysis, absorbance 300 nm; at 38.4 µM (top of the series) unless noted.
How it was run: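 NDM-1 at 2 nM final in 50 mM HEPES pH 7.0, 1 uM ZnSO4, 0.01% Tween20, preincubated >30 min with compound. Meropenem 50 uM final added; absorbance at 300 nm after 30 min.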
Also: % of control where 0% means no effect.

Amino acid sequences for entries named in this document (tags omitted). A change or cut given only in a name is not applied to a line headed by its entry.
UniProt C7C422: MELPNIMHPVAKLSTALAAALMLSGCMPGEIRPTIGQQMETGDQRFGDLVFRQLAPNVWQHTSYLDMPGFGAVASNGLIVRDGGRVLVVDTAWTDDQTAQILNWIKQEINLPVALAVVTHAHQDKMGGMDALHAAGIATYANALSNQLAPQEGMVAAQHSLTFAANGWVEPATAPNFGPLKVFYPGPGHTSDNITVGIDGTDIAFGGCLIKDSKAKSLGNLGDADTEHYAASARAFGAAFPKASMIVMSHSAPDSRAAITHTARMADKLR

SMILES | activity % (negative = inhibition)
COCCN[C@H]1[C@@H]2OC[C@@H](O2)[C@@H](NCc2cnc3ccccc3c2)[C@@H]1O | inactive: 1.55% [at 57.5 µM]
COc1ccc(CCc2nc(C3CC(=O)N(c4ccc(Cl)cc4)C3)no2)cc1 (stereo unspecified) | inactive: 0.433%
COC(=O)C1=CN(Cc2cccc(Cl)c2)S(=O)(=O)N=C1C | inactive: 6.3%
CC(=O)Nc1ccc(CN2CC3(Cc4ccccc4NC3=O)C2)cc1 | inactive: -14.1%
CN1C(=O)c2cccn2CC1C(=O)NC1CCCC1 (stereo unspecified) | inactive: 2.09%
CC(C)Cn1c(CNC(=O)OC(C)(C)C)nc2cccnc21 | inactive: 1.49%
Cc1ncccc1-c1nc2cc(C(=O)NCc3ccccc3F)ccc2o1 | inactive: 56% [at 57.5 µM]
COc1ccc(CNC(=O)C[C@@H]2CCNC[C@@H]2Cc2cc(C(C)(C)C)on2)cc1 | inactive: -0.141% [at 57.5 µM]
CC(=O)NCCC(=O)N1CCC2(CC1)CN(C(=O)NC(C)C)CCO2 | inactive: -0.28%
CC(C)CCN1CCNC(=O)C1CC(=O)N(Cc1cnn(C)c1)C1CC1 (stereo unspecified) | inactive: 3.07%
COc1ccc(-c2cc3c(=O)n(CCNC(=O)c4ccsc4)ccn3n2)cc1 | inactive: 4.04%
CCOc1ccc(-c2cc3c(=O)n(CCNC(=O)c4cnccn4)ccn3n2)cc1 | inactive: -2.03%
COc1ccc(-c2cc(C(=O)NCC3CC3)c3c(C4CCNC4)noc3n2)cc1 (stereo unspecified) | inactive: -1.11%
O=C(C1CCCN(c2cnn(Cc3ccccc3)c(=O)c2)C1)N1CCCN(c2ncccn2)CC1 (stereo unspecified) | inactive: -1.04%
COc1ccc(CNC(=O)[C@H]2CNC[C@H](C(=O)N3CCCC3)C2)c(F)c1F | inactive: 0.352%
CC(=O)NC1(C)CCCN(Cc2cc(-c3c(C)noc3C)cs2)C1 (stereo unspecified) | inactive: 44.6% [at 57.5 µM]
CCCNC(=O)N1CCc2nc(N3CCN(C)CC3)sc2C1 | inactive: 5.25%
CCOc1ccc(-c2ccnc(NC[C@@H]3CCCO3)n2)cc1C(=O)O | inactive: 10.2%
O=C(c1ccc(C(F)(F)F)cc1)N1CCCC(C(=O)N2CCC(N3CCOC3=O)CC2)C1 (stereo unspecified) | inactive: 2.03%
OCCC1CCN(c2ccc(-c3nc(CCCc4ccccc4)no3)cn2)CC1 | inactive: 11.7%
Cc1ccsc1C(=O)N1CCC(c2nc(CCOCC3CC3)no2)C1 (stereo unspecified) | inactive: -4.81%
O=C(O)C1CCc2nnc(C3CCCN([S+](=O)([O-])c4cccc(C(F)(F)F)c4)C3)n21 (stereo unspecified) | inactive: 1.06%

SMILES | activity % (negative = inhibition)
C[C@@H](NC(=O)C1CCCC1)c1onc(-c2cccnc2)c1C(=O)O | inactive: 13.7% [at 57.5 µM]
C[S+](=O)([O-])N1CCN(c2nccc(Nc3ccccc3F)n2)CC1 | inactive: 6.45%
O=C(COc1ccccc1)N1C[C@@H]2C[C@H](C1)c1ccc(-c3cccc(C(F)(F)F)c3)c(=O)n1C2 | inactive: 1.7%
CN(C)c1cc(CC2CC(=O)N(c3ccccc3)C2)ncn1 (stereo unspecified) | inactive: 4.42%
CN1CCCCCCN(C(=O)c2cccn2C)[C@H]2CCC[C@H]2C1=O | inactive: 0.129%
CCC(O)c1cc2n(n1)CCN(Cc1nccn1Cc1ccccc1)C2 (stereo unspecified) | inactive: -7.19%
Cn1c(CNC(=O)CC2CCN(S(C)(=O)=O)C2)nc2ccccc21 (stereo unspecified) | inactive: -2.02%
CCN1C(=O)N(Cc2cccc(OC)c2)C(=O)C12CCN(Cc1nc3ccccc3n1C)CC2 | inactive: -5.21%
COCC1CN(C(=O)c2ccc(OC)nc2OC)CC12CCNCC2 (stereo unspecified) | inactive: 0.277%
Cn1nccc1C(=O)N1C[C@@H](COc2ccccc2)[C@H](C(N)=O)C1 | inactive: 0.403%
CN1CCC(Cc2ccc(C(=O)N3CCCC3)cc2)CC1 | inactive: -12.9%
COc1cccc(COC2CN(CCc3ccccc3)C(=O)CN(C(=O)CN3CCOC3=O)C2)c1 (stereo unspecified) | inactive: 10.9%
Cc1noc(-c2cn(C3CCN(C(=O)c4ccc(C)s4)CC3)nn2)n1 | inactive: 2.54%
CN(C)CC(O)c1cc2n(n1)CCCN(C(=O)c1cccn1C1CC1)C2 (stereo unspecified) | inactive: -0.794%
CCCNC(=O)N1CCOC[C@H](Oc2ccc(C(F)(F)F)cn2)C1 | inactive: -3.91% [at 57.5 µM]
O=S(=O)(Cc1cccc(Cl)c1)NCCc1noc(-c2ccccc2)n1 | inactive: -1.47%
O=C(NCc1nnc2n1CCCCC2)C1CC2(CCNCC2)CN1 (stereo unspecified) | inactive: -2.67%
O=C(c1ccccn1)N1CC(F)(F)C[C@H]1c1nc(-c2ncccn2)no1 | inactive: 0.767%
O=C(NCC1CCCO1)c1cc(-c2ccccc2F)cc2c1OCCN2Cc1cccnc1 (stereo unspecified) | inactive: 2.1%
CN(C(=O)c1ccccc1)C1CCOc2ccccc21 (stereo unspecified) | inactive: 11.8% [at 57.5 µM]
COc1ccccc1OC1CCN(Cc2ccccc2C#N)CC1 | inactive: -5.98%
COc1ccc(C2(C(=O)N3CCOCC3)CCOCC2)cc1 | inactive: 2.32%

SMILES | activity % (negative = inhibition)
O=C(NCC1CCC(=O)N(Cc2ccccc2)CC1)C1CCCCC1 (stereo unspecified) | inactive: 2.91%
CN(C)S(=O)(=O)N1CCC(Oc2ccc(C(=O)NCCc3ccncc3)cc2)CC1 | inactive: 10.4%
Cn1nc(C2CCCC2)cc1N[S+](=O)([O-])c1ccccc1 | inactive: 10.5% [at 57.5 µM]
COCCN1C(=O)CC[C@]2(C(=O)NCc3cccs3)CCCC[C@@H]12 | inactive: -0.247%
C[S+](=O)([O-])N1CC2(CCCCN2Cc2ccccn2)Cc2ccccc21 (stereo unspecified) | inactive: 1.72%
CCCCN1CCN(C(=O)C2(c3ccc(NS(C)(=O)=O)cc3)CCCCC2)CC1 | inactive: 6.62%
CC1CCN(CC2CCCCCN2C(=O)CC2CCCC2)CC1 (stereo unspecified) | inactive: -2.16%
COc1cccc(CNC(=O)c2cn3cc(-c4cccc(OC)c4)sc3n2)c1 | inactive: 25.5%
C[C@]1(CO)[C@H]2Cc3sc(NC(=O)c4ccco4)nc3[C@@H](CC(=O)NC3CCCC3)[C@]2(C)CC[C@H]1O | inactive: 14%
CN(C)CCC(=O)N1Cc2ccccc2CC2(CCCN2Cc2cccnc2)C1 (stereo unspecified) | inactive: 0.168%
COCC1CN(C)CC12CCN(C(=O)COc1cccc(C)c1)CC2 (stereo unspecified) | inactive: 0.322%
CC(C)c1noc(-c2ccn3c(CNC(=O)c4ccoc4)nnc3c2)n1 | inactive: 4.33%
O=C1Nc2ccccc2CC12CCCN(C1COC1)C2 (stereo unspecified) | inactive: 2.76% [at 57.5 µM]
COc1ccccc1CNC(=O)c1cc2c(N3CCSCC3)nc(C)cn2n1 | inactive: 22.7%
CC1(C)[C@H](Cc2cc(CC3CCCCC3)on2)C[C@@H]1NC1CCOCC1 | inactive: 4.65% [at 57.5 µM]
O=C(c1ccc(F)cc1Cl)N1CCN(C(=O)c2nnn3c2COC(c2ccccc2)C3)CC1 (stereo unspecified) | inactive: -0.584%
CC1(C(=O)O)CCN(C(=O)c2cccc(Cl)c2)CC1 | inactive: -12.5% [at 57.5 µM]
CNc1nccnc1-c1cccc(CN2CCOCC2)c1 | inactive: 22.6%
COCCN1CC(CO)C2(CCN(C(=O)Cc3c(C)noc3C)CC2)C1 (stereo unspecified) | inactive: -0.0207%
Cc1cccc(-n2cc(CN(C)C(C)c3ccon3)c(-c3cccc(F)c3)n2)c1 (stereo unspecified) | inactive: 16%
CN(CCc1ccccn1)[C@H]1[C@@H]2OC[C@@H](O2)[C@@H](NCc2ccncc2)[C@@H]1O | inactive: 24.8% [at 57.5 µM]
O=C1NCC2(CCCN(C(=O)c3cnc4c(O)cccn4c3=O)C2)O1 (stereo unspecified) | inactive: 41.7%

25 of these compounds, reformatted:

| SMILES | activity % (negative = inhibition) |
| --- | --- |
| O=C(c1ccccn1)N1CC(F)(F)C[C@H]1c1nc(-c2ncccn2)no1 | inactive: 0.767% |
| O=C(NCC1CCCO1)c1cc(-c2ccccc2F)cc2c1OCCN2Cc1cccnc1 (stereo unspecified) | inactive: 2.1% |
| CN(C(=O)c1ccccc1)C1CCOc2ccccc21 (stereo unspecified) | inactive: 11.8% [at 57.5 µM] |
| COc1ccccc1OC1CCN(Cc2ccccc2C#N)CC1 | inactive: -5.98% |
| COc1ccc(C2(C(=O)N3CCOCC3)CCOCC2)cc1 | inactive: 2.32% |
| O=C(NCC1CCC(=O)N(Cc2ccccc2)CC1)C1CCCCC1 (stereo unspecified) | inactive: 2.91% |
| CN(C)S(=O)(=O)N1CCC(Oc2ccc(C(=O)NCCc3ccncc3)cc2)CC1 | inactive: 10.4% |
| Cn1nc(C2CCCC2)cc1N[S+](=O)([O-])c1ccccc1 | inactive: 10.5% [at 57.5 µM] |
| COCCN1C(=O)CC[C@]2(C(=O)NCc3cccs3)CCCC[C@@H]12 | inactive: -0.247% |
| C[S+](=O)([O-])N1CC2(CCCCN2Cc2ccccn2)Cc2ccccc21 (stereo unspecified) | inactive: 1.72% |
| CCCCN1CCN(C(=O)C2(c3ccc(NS(C)(=O)=O)cc3)CCCCC2)CC1 | inactive: 6.62% |
| CC1CCN(CC2CCCCCN2C(=O)CC2CCCC2)CC1 (stereo unspecified) | inactive: -2.16% |
| COc1cccc(CNC(=O)c2cn3cc(-c4cccc(OC)c4)sc3n2)c1 | inactive: 25.5% |
| C[C@]1(CO)[C@H]2Cc3sc(NC(=O)c4ccco4)nc3[C@@H](CC(=O)NC3CCCC3)[C@]2(C)CC[C@H]1O | inactive: 14% |
| CN(C)CCC(=O)N1Cc2ccccc2CC2(CCCN2Cc2cccnc2)C1 (stereo unspecified) | inactive: 0.168% |
| COCC1CN(C)CC12CCN(C(=O)COc1cccc(C)c1)CC2 (stereo unspecified) | inactive: 0.322% |
| CC(C)c1noc(-c2ccn3c(CNC(=O)c4ccoc4)nnc3c2)n1 | inactive: 4.33% |
| O=C1Nc2ccccc2CC12CCCN(C1COC1)C2 (stereo unspecified) | inactive: 2.76% [at 57.5 µM] |
| COc1ccccc1CNC(=O)c1cc2c(N3CCSCC3)nc(C)cn2n1 | inactive: 22.7% |
| CC1(C)[C@H](Cc2cc(CC3CCCCC3)on2)C[C@@H]1NC1CCOCC1 | inactive: 4.65% [at 57.5 µM] |
| O=C(c1ccc(F)cc1Cl)N1CCN(C(=O)c2nnn3c2COC(c2ccccc2)C3)CC1 (stereo unspecified) | inactive: -0.584% |
| CC1(C(=O)O)CCN(C(=O)c2cccc(Cl)c2)CC1 | inactive: -12.5% [at 57.5 µM] |
| CNc1nccnc1-c1cccc(CN2CCOCC2)c1 | inactive: 22.6% |
| COCCN1CC(CO)C2(CCN(C(=O)Cc3c(C)noc3C)CC2)C1 (stereo unspecified) | inactive: -0.0207% |
| Cc1cccc(-n2cc(CN(C)C(C)c3ccon3)c(-c3cccc(F)c3)n2)c1 (stereo unspecified) | inactive: 16% |

(continued)

SMILES | activity % (negative = inhibition)
Cc1cc(CNC(=O)Cc2nonc2C)c2[nH]c(-c3ccccc3)c(C)c2c1 | inactive: 25.4%
c1ccc(OCCCCN2CCOCC2)c(CNC2CCNC2)c1 (stereo unspecified) | inactive: 4.61%
COc1ccc(Cl)cc1NC(=O)CCC1CCCN(C(=O)CCc2scnc2C)C1 (stereo unspecified) | inactive: 5.38%
CN(C)C(=O)N1C[C@@H]2CN(C3CCOCC3)C[C@]2(C(=O)O)C1 | inactive: -0.344%
CC(C)c1cc(C(=O)N2C[C@@H](C)[C@](O)(C3CC3)C2)nc2ncnn12 | inactive: 15.3%
O=C(Nc1cc(C2CC2)nn1-c1ccccc1)c1ccc(C(F)(F)F)cc1 | inactive: 15.5%
CCOc1ccc(CN2CCC(c3nnc(Cn4cncn4)n3C)CC2)cn1 | inactive: -10.3%
CCN1C(=O)CCc2cc(NS(=O)(=O)c3cn(C)c(C)n3)ccc21 | inactive: 0.117%
CN(Cc1ccc(-n2cccn2)cc1)Cc1nc(Cc2cccc(F)c2)no1 | inactive: -7.28%
CCC(C(=O)N1CCc2onc(-c3ccc(F)c(F)c3)c2C1)n1cccn1 (stereo unspecified) | inactive: -11.8%
Cc1ccccc1N(C)C1CN([S+](=O)([O-])c2c(C)noc2C)C1 | inactive: 2.62%
CCO[C@H]1CN(C2CCN(c3ccc4c(c3)CCC4)CC2)C[C@@H]1O | inactive: -1.85%
OCC1CN(c2ccncn2)CC12CCN(Cc1cc(F)c(F)c(F)c1)CC2 (stereo unspecified) | inactive: 3.17%
COc1cccc2c1OCCCN(Cc1cn(-c3ccccc3)nn1)C2 | inactive: -5.51%
O=C(CC[C@@H]1CNC(=O)[C@@H]2C[C@H](NCc3ccccn3)CN12)NCc1ccccc1 | inactive: 3.11% [at 57.5 µM]
CCC(CC)NC(=O)[C@@H]1COCC(=O)N1Cc1ccc(OC)cc1OC | inactive: -2.73%
COc1ccc(CN2CCCC3(Cc4ccccc4CNC3=O)C2)c(OC)n1 (stereo unspecified) | inactive: 11.1%
COCCNC(=O)N1CCCC(CNC(=O)c2cccc3ccccc23)C1 (stereo unspecified) | inactive: 3.38%
CS(=O)(=O)c1ccc(OCC2(CNCc3cccc(C(F)(F)F)c3)C[C@@H](O)[C@@H](O)C2)cc1 (stereo partly specified) | inactive: -1.18%
COC1C(=O)N(c2cccc(F)c2)C12CCN(S(=O)(=O)c1cccs1)CC2 (stereo unspecified) | inactive: 7.57%
